# Structures can show the parent of a compound that is named as a salt. ± gives the standard deviation of the averaged measurements. Some of the results follow. The data scatter; read single values as rough.
# Legend:
# hAMSC donor 1 [1] = assay: Hoechst total cell count ratio vs vehicle control; higher = more cells (less toxicity)
# hAMSC donor 2 [2] = assay: as above
# hAMSC donor 1 [3] = assay: transgenic luciferase activity (RLU/mg protein) fold change vs vehicle control (ratio); higher = more transgene expression
# hAMSC donor 2 [4] = assay: as above
# hAMSC donor 1 [5] = assay: transfection efficiency (EGFP+ cells / Hoechst count) fold change vs vehicle control (ratio); hAMSC are human adipose-derived mesenchymal stem cells given an EGFP-luciferase plasmid by lipofection; higher = enhanced transfection
# hAMSC donor 2 [6] = assay: as above
# [7] = priming compound concentration 0.2 µM
# [8] = priming compound concentration 1.7 µM
# [9] = priming compound concentration 13 µM
SMILES,Hoechst total cell count ratio (hAMSC donor 1 [1]; [7]),Hoechst total cell count ratio (hAMSC donor 1 [1]; [8]),Hoechst total cell count ratio (hAMSC donor 1 [1]; [9]),Hoechst total cell count ratio (hAMSC donor 2 [2]; [7]),Hoechst total cell count ratio (hAMSC donor 2 [2]; [8]),Hoechst total cell count ratio (hAMSC donor 2 [2]; [9]),transgenic luciferase activity (hAMSC donor 1 [3]; [8]),transgenic luciferase activity (hAMSC donor 1 [3]; [9]),transgenic luciferase activity (hAMSC donor 2 [4]; [7]),transgenic luciferase activity (hAMSC donor 2 [4]; [8]),transgenic luciferase activity (hAMSC donor 2 [4]; [9]),transfection efficiency (hAMSC donor 1 [5]; [7]),transfection efficiency (hAMSC donor 1 [5]; [8]),transfection efficiency (hAMSC donor 1 [5]; [9]),transfection efficiency (hAMSC donor 2 [6]; [7]),transfection efficiency (hAMSC donor 2 [6]; [8]),transfection efficiency (hAMSC donor 2 [6]; [9]),transgenic luciferase activity (hAMSC donor 1 [3]; [7])
O=C(O)c1cc(=O)c2c(OCC(O)COc3cccc4oc(C(=O)O)cc(=O)c34)cccc2o1 [Cromolyn sodium],1 ± 0.078,1.25 ± 0.023,1.32 ± 0.036,1.28 ± 0.16,1.17 ± 0.18,1.23 ± 0.2,0.385 ± 0.13,0.777 ± 0.064,1.03 ± 0.1,0.527 ± 0.063,0.503 ± 0.21,0.906 ± 0.23,1.64 ± 0.31,0.727 ± 0.077,0.989 ± 0.29,1.01 ± 0.033,0.885 ± 0.094,
CCCCNC(=O)NS(=O)(=O)c1ccc(C)cc1 [Tolbutamide],1.19 ± 0.13,1.37 ± 0.015,1.47 ± 0.061,0.946 ± 0.12,1.04 ± 0.22,1.18 ± 0.17,1.06 ± 0.14,,0.864 ± 0.37,1.22 ± 0.11,0.688 ± 0.27,1.1 ± 0.13,1.37 ± 0.36,0.678 ± 0.31,1.16 ± 0.28,1.08 ± 0.18,1.14 ± 0.2,0.717 ± 0.035
C[C@H]1c2cccc(O)c2C(=O)C2=C(O)[C@]3(O)C(=O)C(C(N)=O)=C(O)[C@@H](N(C)C)[C@@H]3[C@@H](O)[C@@H]21 [Doxycycline],1.04 ± 0.08,0.971 ± 0.17,1.13 ± 0.039,1.28 ± 0.061,1.1 ± 0.061,1.45 ± 0.021,0.413 ± 0.15,1.55 ± 0.46,1.08 ± 0.47,0.499 ± 0.099,0.483 ± 0.065,1.79 ± 0.97,1.31 ± 0.36,0.741 ± 0.24,1.11 ± 0.04,1.14 ± 0.075,0.825 ± 0.13,
C[C@]12C=CC(=O)C=C1CC[C@@H]1[C@@H]2[C@@H](O)C[C@@]2(C)[C@H]1CC[C@]2(O)C(=O)COC(=O)CCC(=O)O [Prednisolone sodium succinate],1.45 ± 0.11,1.3 ± 0.073,1.32 ± 0.081,1.09 ± 0.052,1.14 ± 0.13,1.51 ± 0.13,5.41 ± 0.56,,1.53 ± 0.14,2.73 ± 0.51,1.86 ± 1.1,0.998 ± 0.13,1.15 ± 0.17,0.982 ± 0.15,1.48 ± 0.32,1.7 ± 0.23,1.23 ± 0.34,0.917 ± 0.12
CCc1cccc2c3c([nH]c12)C(CC)(CC(=O)O)OCC3 (stereo not drawn) [Etodolac],0.983 ± 0.16,1.21 ± 0.048,1.12 ± 0.067,1.21 ± 0.11,1.05 ± 0.097,0.947 ± 0.07,0.211 ± 0.079,0.901 ± 0.047,0.981 ± 0.34,1.03 ± 0.095,0.531 ± 0.12,1.02 ± 0.39,1.11 ± 0.64,0.538 ± 0.28,0.802 ± 0.088,1.18 ± 0.2,0.904 ± 0.11,
CCC(=O)O[C@]1(C(=O)CCl)[C@@H](C)C[C@H]2[C@@H]3CCC4=CC(=O)C=C[C@]4(C)[C@@]3(F)[C@@H](O)C[C@@]21C [Clobetasol propionate],1.22 ± 0.23,1.09 ± 0.032,1.09 ± 0.14,0.861 ± 0.045,0.909 ± 0.07,1.19 ± 0.19,30.9 ± 3.9,,4 ± 0.91,4.66 ± 0.42,2.9 ± 0.96,2.36 ± 0.61,2.14 ± 0.31,1.34 ± 0.28,2.92 ± 0.73,3.02 ± 0.05,1.77 ± 0.086,12.7 ± 0.47
CCOC(=O)C1=C(COCCN)NC(C)=C(C(=O)OC)C1c1ccccc1Cl (stereo not drawn) [Amlodipine],1.48 ± 0.14,1.39 ± 0.051,1.47 ± 0.15,0.974 ± 0.14,0.983 ± 0.051,1.54 ± 0.2,0.633 ± 0.11,0.221 ± 0.15,0.533 ± 0.085,0.723 ± 0.016,0.61 ± 0.11,0.931 ± 0.091,1.26 ± 0.29,0.773 ± 0.3,0.918 ± 0.056,1.17 ± 0.066,0.447 ± 0.076,
COc1ccc2cc(CCC(C)=O)ccc2c1 [Nabumetone],1.38 ± 0.21,1.2 ± 0.061,1.38 ± 0.17,1.15 ± 0.03,1.27 ± 0.21,1.16 ± 0.13,1.27 ± 0.17,0.628 ± 0.1,0.898 ± 0.38,0.953 ± 0.46,1.23 ± 0.25,0.993 ± 0.15,1.58 ± 0.31,1.23 ± 0.28,0.918 ± 0.08,1.16 ± 0.058,1.4 ± 0.13,
CC(CCc1ccccc1)NCC(O)c1ccc(O)c(C(N)=O)c1 (stereo not drawn) [Labetalol hydrochloride],1.26 ± 0.082,1.21 ± 0.095,1.38 ± 0.19,1.12 ± 0.074,1.21 ± 0.046,1.44 ± 0.069,0.776 ± 0.059,0.366 ± 0.066,0.745 ± 0.096,0.441 ± 0.056,0.385 ± 0.058,1.04 ± 0.42,1.08 ± 0.2,1.1 ± 0.27,0.875 ± 0.072,1.13 ± 0.024,0.804 ± 0.092,
CC(=O)OCC(=O)[C@@]12OC(C)(C)O[C@@H]1C[C@H]1[C@@H]3C[C@H](F)C4=CC(=O)C=C[C@]4(C)[C@@]3(F)[C@@H](O)C[C@@]12C [Fluocinolone acetonide 21-acetate],1.05 ± 0.13,1.19 ± 0.06,1.16 ± 0.059,1.46 ± 0.31,0.934 ± 0.039,0.979 ± 0.16,2.8 ± 0.15,11.3 ± 0.46,5 ± 1.3,4.5 ± 0.41,3.25 ± 0.44,1.61 ± 0.35,3.31 ± 0.71,2.11 ± 0.42,1.04 ± 0.43,2.3 ± 0.51,1.88 ± 0.2,
NS(=O)(=O)c1cc2c(cc1C(F)(F)F)NC(Cc1ccccc1)NS2(=O)=O (stereo not drawn) [Bendrofluazide],1.19 ± 0.024,1.19 ± 0.043,1.29 ± 0.037,0.948 ± 0.09,1.11 ± 0.34,0.964 ± 0.055,1.47 ± 0.24,,1.2 ± 0.24,0.982 ± 0.14,1.18 ± 0.32,1.3 ± 0.38,1.07 ± 0.55,0.763 ± 0.15,0.971 ± 0.3,1.06 ± 0.52,1.38 ± 0.4,0.659 ± 0.31
C#C[C@]1(OC(C)=O)CC[C@H]2[C@@H]3CCC4=CC(=O)CC[C@@H]4[C@H]3CC[C@@]21C [19-Norethindrone acetate],1.38 ± 0.15,1.1 ± 0.16,1.38 ± 0.25,1.12 ± 0.036,1.11 ± 0.033,1.28 ± 0.41,0.905 ± 0.029,0.351 ± 0.14,0.82 ± 0.16,0.47 ± 0.095,0.502 ± 0.084,1.12 ± 0.37,1.28 ± 0.2,1.1 ± 0.12,0.816 ± 0.17,1.05 ± 0.048,0.816 ± 0.077,
CCCC1O[C@@H]2C[C@H]3[C@@H]4CCC5=CC(=O)C=C[C@]5(C)[C@H]4[C@@H](O)C[C@]3(C)[C@]2(C(=O)CO)O1 (stereo partly drawn) [Budesonide],1.36 ± 0.16,1.33 ± 0.075,1.2 ± 0.18,0.865 ± 0.074,0.905 ± 0.047,1.33 ± 0.058,25.5 ± 3.8,,3.02 ± 1.1,2.4 ± 0.94,3.93 ± 0.44,1.36 ± 0.052,1.44 ± 0.29,1.04 ± 0.22,2.62 ± 0.35,3.27 ± 0.023,2.1 ± 0.46,7.13 ± 0.98
COC(=O)[C@H](c1ccccc1Cl)N1CCc2sccc2C1 [Clopidogrel],1.37 ± 0.23,1.07 ± 0.058,1.24 ± 0.32,1.19 ± 0.15,1.17 ± 0.088,1.5 ± 0.092,1.46 ± 0.21,1.04 ± 0.84,0.812 ± 0.18,0.585 ± 0.041,0.51 ± 0.17,0.733 ± 0.47,1.26 ± 0.46,1.21 ± 0.31,0.889 ± 0.11,1.03 ± 0.17,0.879 ± 0.089,

# Individual results from the list:
# CCCC1O[C@@H]2C[C@H]3[C@@H]4CCC5=CC(=O)C=C[C@]5(C)[C@H]4[C@@H](O)C[C@]3(C)[C@]2(C(=O)CO)O1 (stereo partly drawn) [Budesonide] | Hoechst total cell count ratio (hAMSC donor 2 [2]; [9]): 1.33 ± 0.058
# COC(=O)[C@H](c1ccccc1Cl)N1CCc2sccc2C1 [Clopidogrel] | transgenic luciferase activity (hAMSC donor 2 [4]; [8]): 0.585 ± 0.041

# Source: the supplement of paper PMC7238544
